Measurements as given in the supplement of paper PMC8728848.
The list shows a part of the results.

Assays:
Experiment in all cases: glycan array binding signal (z-score within array); higher = stronger binding
Conditions in all cases: glycan notation: IUPAC condensed, linker removed
Neu5Ac(a2-3)Gal = molecular target: Neu5Ac(a2-3)Gal
Procedure, shortened: (§1)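 The Consortium for Functional Glycomics database supplied 3228 glycan arrays, of which those lacking an available protein sequence were dropped. The binding signal, a within-array Z-score, was averaged across arrays of the same protein sequence and across linkers. Negative scores can be read as non-binding.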

[1] = molecular target: Neu5Ac(a2-3)Gal(b1-3)GalNAc
Procedure, shortened: as §1

[2] = molecular target: Neu5Ac(a2-3)Gal(b1-3)GalNAc(b1-3)Gal(a1-4)Gal(b1-4)Glc
Procedure, shortened: as §1

[3] = molecular target: Neu5Ac(a2-3)Gal(b1-3)GalNAc(b1-4)[Neu5Ac(a2-3)]Gal(b1-4)Glc
Procedure, shortened: as §1

[4] = molecular target: Neu5Ac(a2-3)Gal(b1-3)GalNAc(b1-4)[Neu5Ac(a2-8)Neu5Ac(a2-3)]Gal(b1-4)Glc
Procedure, shortened: as §1

[5] = molecular target: Neu5Ac(a2-3)Gal(b1-3)GalNAc6S
Procedure, shortened: as §1

[6] = molecular target: Neu5Ac(a2-3)Gal(b1-3)GlcNAc
Procedure, shortened: as §1

[7] = molecular target: Neu5Ac(a2-3)Gal(b1-3)GlcNAc(b1-2)Man
Procedure, shortened: as §1

[8] = molecular target: Neu5Ac(a2-3)Gal(b1-3)GlcNAc(b1-2)Man(a1-3)[GlcNAc(b1-4)][Neu5Ac(a2-3)Gal(b1-3)GlcNAc(b1-2)Man(a1-6)]Man(b1-4)GlcNAc(b1-4)GlcNAc
Procedure, shortened: as §1

[9] = molecular target: Neu5Ac(a2-3)Gal(b1-3)GlcNAc(b1-2)Man(a1-3)[Neu5Ac(a2-3)Gal(b1-3)GlcNAc(b1-2)Man(a1-6)]Man(b1-4)GlcNAc(b1-4)GlcNAc
Procedure, shortened: as §1

[10] = molecular target: Neu5Ac(a2-3)Gal(b1-3)GlcNAc(b1-3)Gal(b1-3)GlcNAc
Procedure, shortened: as §1

[11] = molecular target: Neu5Ac(a2-3)Gal(b1-3)GlcNAc(b1-3)Gal(b1-4)GlcNAc
Procedure, shortened: as §1

[12] = molecular target: Neu5Ac(a2-3)Gal(b1-3)GlcNAc(b1-3)GalNAc
Procedure, shortened: as §1

[13] = molecular target: Neu5Ac(a2-3)Gal(b1-3)GlcNAc(b1-4)Gal(b1-4)Glc
Procedure, shortened: as §1

[14] = molecular target: Neu5Ac(a2-3)Gal(b1-3)GlcNAc(b1-6)GalNAc
Procedure, shortened: as §1

[15] = molecular target: Neu5Ac(a2-3)Gal(b1-3)GlcNAc6S
Procedure, shortened: as §1

[16] = molecular target: Neu5Ac(a2-3)Gal(b1-3)[Fuc(a1-4)]GlcNAc
Procedure, shortened: as §1

[17] = molecular target: Neu5Ac(a2-3)Gal(b1-3)[Fuc(a1-4)]GlcNAc(b1-3)Gal(b1-3)[Fuc(a1-4)]GlcNAc
Procedure, shortened: as §1

[18] = molecular target: Neu5Ac(a2-3)Gal(b1-3)[Fuc(a1-4)]GlcNAc(b1-3)Gal(b1-4)[Fuc(a1-3)]GlcNAc
Procedure, shortened: as §1

[19] = molecular target: Neu5Ac(a2-3)Gal(b1-3)[GlcNAc(b1-6)]GalNAc
Procedure, shortened: as §1

[20] = molecular target: Neu5Ac(a2-3)Gal(b1-3)[Neu5Ac(a2-6)]GalNAc
Procedure, shortened: as §1

[21] = molecular target: Neu5Ac(a2-3)Gal(b1-3)[Neu5Ac(a2-6)]GlcNAc(b1-3)[Fuc(a1-3)[Gal(b1-4)]GlcNAc(b1-6)]Gal(b1-4)Glc
Procedure, shortened: as §1

[22] = molecular target: Neu5Ac(a2-3)Gal(b1-3)]Neu5Ac(a2-3)Gal(b1-4)]GlcNAc
Procedure, shortened: as §1

Neu5Ac(a2-3)Gal(b1-4)Glc = molecular target: Neu5Ac(a2-3)Gal(b1-4)Glc
Procedure, shortened: as §1

[23] = molecular target: Neu5Ac(a2-3)Gal(b1-4)GlcNAc
Procedure, shortened: as §1

[24] = molecular target: Neu5Ac(a2-3)Gal(b1-4)GlcNAc(b1-2)Man
Procedure, shortened: as §1

[25] = molecular target: Neu5Ac(a2-3)Gal(b1-4)GlcNAc(b1-2)Man(a1-3)[GlcNAc(b1-4)][Neu5Ac(a2-3)Gal(b1-4)GlcNAc(b1-2)Man(a1-6)]Man(b1-4)GlcNAc(b1-4)GlcNAc
Procedure, shortened: as §1

[26] = molecular target: Neu5Ac(a2-3)Gal(b1-4)GlcNAc(b1-2)Man(a1-3)[Neu5Ac(a2-3)Gal(b1-4)GlcNAc(b1-2)Man(a1-6)]Man(b1-4)GlcNAc(b1-4)GlcNAc
Procedure, shortened: as §1

[27] = molecular target: Neu5Ac(a2-3)Gal(b1-4)GlcNAc(b1-2)Man(a1-3)[Neu5Ac(a2-3)Gal(b1-4)GlcNAc(b1-2)Man(a1-6)]Man(b1-4)GlcNAc(b1-4)[Fuc(a1-6)]GlcNAc
Procedure, shortened: as §1

[28] = molecular target: Neu5Ac(a2-3)Gal(b1-4)GlcNAc(b1-2)Man(a1-3)[Neu5Ac(a2-6)Gal(b1-4)GlcNAc(b1-2)Man(a1-6)]Man(b1-4)GlcNAc(b1-4)GlcNAc
Procedure, shortened: as §1

[29] = molecular target: Neu5Ac(a2-3)Gal(b1-4)GlcNAc(b1-2)[Neu5Ac(a2-3)Gal(b1-4)GlcNAc(b1-4)]Man(a1-3)[GlcNAc(b1-4)][Neu5Ac(a2-3)Gal(b1-4)GlcNAc(b1-2)[Neu5Ac(a2-3)Gal(b1-4)GlcNAc(b1-6)]Man(a1-6)]Man(b1-4)GlcNAc(b1-4)GlcNAc
Procedure, shortened: as §1

[30] = molecular target: Neu5Ac(a2-3)Gal(b1-4)GlcNAc(b1-2)[Neu5Ac(a2-3)Gal(b1-4)GlcNAc(b1-4)]Man(a1-3)[GlcNAc(b1-4)][Neu5Ac(a2-3)Gal(b1-4)GlcNAc(b1-4)Man(a1-6)]Man(b1-4)GlcNAc(b1-4)GlcNAc
Procedure, shortened: as §1

[31] = molecular target: Neu5Ac(a2-3)Gal(b1-4)GlcNAc(b1-2)[Neu5Ac(a2-3)Gal(b1-4)GlcNAc(b1-6)]Man(a1-6)[Neu5Ac(a2-3)Gal(b1-4)GlcNAc(b1-2)Man(a1-3)]Man(b1-4)GlcNAc(b1-4)GlcNAc
Procedure, shortened: as §1

[32] = molecular target: Neu5Ac(a2-3)Gal(b1-4)GlcNAc(b1-2)[Neu5Ac(a2-3)Gal(b1-4)GlcNAc(b1-6)]Man(a1-6)[Neu5Ac(a2-3)Gal(b1-4)GlcNAc(b1-2)Man(a1-3)][GlcNAc(b1-4)]Man(b1-4)GlcNAc(b1-4)GlcNAc
Procedure, shortened: as §1

[33] = molecular target: Neu5Ac(a2-3)Gal(b1-4)GlcNAc(b1-3)Gal
Procedure, shortened: as §1

[34] = molecular target: Neu5Ac(a2-3)Gal(b1-4)GlcNAc(b1-3)Gal(b1-3)GlcNAc
Procedure, shortened: as §1

[35] = molecular target: Neu5Ac(a2-3)Gal(b1-4)GlcNAc(b1-3)Gal(b1-4)GlcNAc
Procedure, shortened: as §1

B1: Clec12b (Mus musculus), Q149M0 (protein)
chain: MSDEVTYATLMLQDSARVRGNQDGNNLRKEGHPAQSSLWRGAALSLMTLCLVLVTGLVTLATMFLQVSNDINSDSEKLSQLQKSIHPQQDNLSESLNSSRKSLTEESLQSQISALLERQEQMATKLCKEFLIHASDHKCNPCPKTWQWYGNSCYYFSINEEKSWSDSRKDCIDKNATLVKIDSTEERDLLQSQLSLTFSFFWLGLSWNSSGRNWLWEDGSFPPPTLFSDKELASFNGSRDCAYFERGNIYASRCSAEIPWICEKTASLVKTEDLD
Neu5Ac(a2-3)Gal
  glycan array binding signal (z-score): -0.719
[1]
  glycan array binding signal (z-score): -0.664
[2]
  glycan array binding signal (z-score): -0.593
[3]
  glycan array binding signal (z-score): -0.389
[4]
  glycan array binding signal (z-score): 1.27
[5]
  glycan array binding signal (z-score): 0.046
[6]
  glycan array binding signal (z-score): -0.346
[7]
  glycan array binding signal (z-score): -0.3
[8]
  glycan array binding signal (z-score): -0.101
[9]
  glycan array binding signal (z-score): 0.287
[10]
  glycan array binding signal (z-score): 1.37
[11]
  glycan array binding signal (z-score): -0.487
[12]
  glycan array binding signal (z-score): -0.412
[13]
  glycan array binding signal (z-score): -0.673
[14]
  glycan array binding signal (z-score): -0.198
[15]
  glycan array binding signal (z-score): -0.313
[16]
  glycan array binding signal (z-score): -0.719
[17]
  glycan array binding signal (z-score): -0.54
[18]
  glycan array binding signal (z-score): -0.44
[19]
  glycan array binding signal (z-score): -0.722
[20]
  glycan array binding signal (z-score): 2.43
[21]
  glycan array binding signal (z-score): -0.695
[22]
  glycan array binding signal (z-score): -0.382
Neu5Ac(a2-3)Gal(b1-4)Glc
  glycan array binding signal (z-score): -0.104
[23]
  glycan array binding signal (z-score): -0.691
[24]
  glycan array binding signal (z-score): 1.58
[25]
  glycan array binding signal (z-score): -0.691
[26]
  glycan array binding signal (z-score): -0.716
[27]
  glycan array binding signal (z-score): 11.9
[28]
  glycan array binding signal (z-score): -0.741
[29]
  glycan array binding signal (z-score): -0.778
[30]
  glycan array binding signal (z-score): -0.562
[31]
  glycan array binding signal (z-score): -0.519
[32]
  glycan array binding signal (z-score): -0.655
[33]
  glycan array binding signal (z-score): -0.778
[34]
  glycan array binding signal (z-score): -0.733
[35]
  glycan array binding signal (z-score): -0.416
